Measured values taken from patent US7026148.
No constants are given. Whether binding was seen depends on the method and setting. Binding seen in cells or lysates may run through a third protein. Some binding calls cover weakened binding; strength is not graded here.

Sequences of proteins named here, by UniProt entry; tags and fusion partners are left off. A change or cut given only in a name is not applied to a line headed by its entry.
UniProt Q9UIK4: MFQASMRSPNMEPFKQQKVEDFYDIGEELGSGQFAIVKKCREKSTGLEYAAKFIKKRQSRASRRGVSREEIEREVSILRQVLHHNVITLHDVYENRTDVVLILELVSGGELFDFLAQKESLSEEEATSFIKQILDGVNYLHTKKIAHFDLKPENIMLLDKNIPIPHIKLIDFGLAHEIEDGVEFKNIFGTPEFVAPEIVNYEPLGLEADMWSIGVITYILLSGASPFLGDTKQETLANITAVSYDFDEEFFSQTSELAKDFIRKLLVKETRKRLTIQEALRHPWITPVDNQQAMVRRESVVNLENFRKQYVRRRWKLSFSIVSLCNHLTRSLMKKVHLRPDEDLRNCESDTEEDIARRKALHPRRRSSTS

How the values were obtained:
[1] = target: DRP-1 Δ40, HA-tagged (lacks the C-terminal 40 amino acids) (human) (UniProt Q9UIK4); experiment: co-immunoprecipitation with anti-FLAG M2 gel from co-transfected 293 cells, anti-HA Western blot
[2] = target: HA-tagged wild type DRP-1 (human) (UniProt Q9UIK4); experiment: as above
[3] = target: HA-tagged wild type DRP-1 (human) (UniProt Q9UIK4); experiment: co-immunoprecipitation (anti-FLAG and anti-HA) from co-transfected 293 cells, Western blot
[4] = target: HA-tagged wild type DRP-1 (human) (UniProt Q9UIK4); experiment: co-immunoprecipitation in both directions, Western blot (FIG. 12A, lane 3)

binding [1]: no binding
binding [2]: binds
binding [3]: binds
binding [4]: binds
Substance: FLAG-tagged wild type DRP-1 (DAP-kinase-related protein 1) (from UniProt Q9UIK4 11-370) (enzyme)
